Values joined by “and” are separate entries in the source; they are usually repeats but may differ in a detail not shown here. Equal entries are not always repeated. This is one part of the list. For some assays here: The exact form of the protein is not confirmed.

Amino acid sequences for entries named in this document (tags omitted). A change or cut given only in a name is not applied to a line headed by its entry.
UniProt Q15286: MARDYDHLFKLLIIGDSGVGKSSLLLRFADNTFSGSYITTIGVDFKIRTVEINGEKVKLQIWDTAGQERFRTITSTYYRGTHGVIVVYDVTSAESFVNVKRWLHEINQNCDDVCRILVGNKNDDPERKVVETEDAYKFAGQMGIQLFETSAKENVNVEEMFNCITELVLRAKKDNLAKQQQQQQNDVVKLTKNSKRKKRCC

Test systems include Protein OSCP1 (human); Protein PPRC1 (human); Protein shisa-4 (human); QARS (human); RAB1B (human); RAB27A (human); RAB39 (human); RAB3B (human).
What all share (assay): protein microarray (ProtoArray v5.0), streptavidin-Alexa Fluor 647
Common to all, as to settings: 3'-biotin; 20 mM Tris (pH 7.5), 5 mM MgCl2, 100 mM KCl, 0.1% Tween-20, A/T-rich and random oligonucleotide blockers; temperature not stated; high values mean tight binding

Test [1] deals with Protein phosphatase Slingshot homolog 3 (human).
For test [2], the system named is Protein transport protein Sec61 subunit alpha isoform 1 (human).
Test [3] deals with Protein transport protein Sec61 subunit beta (human).
Test [4] relates to Protein tyrosine kinase 2 beta (human).
The test system of test [5] is Protein tyrosine phosphatase receptor type C-associated protein (human).
Test [6] deals with Purine nucleoside phosphorylase (human).
Test [7] concerns Putative ATP-dependent Clp protease proteolytic subunit, mitochondrial (human).
For test [8], the system named is Putative adenylate kinase 7 (human).
For test [9], the system named is Putative elongation factor 1-delta-like protein (human).
Test [10] relates to Putative protein phosphatase inhibitor 2-like protein 3 (human).
Test [11] relates to Pyruvate kinase isozymes R/L (human).
A further test deals with RAB35 (UniProt Q15286).

Turning to “GGTGACAGGGGTATGGGGAGGGG [G4-2 biotinylated (Ct1)]”, the binding signal with Protein OSCP1 (human) is -0.382 z-score; with Protein PPRC1 (human), -0.393 z-score and -0.41 z-score; in [1] it was -0.376 z-score and -0.381 z-score; in the test on Protein shisa-4 (human), -0.373 z-score; in [2], -0.359 z-score; in test [3], 6.31 z-score. Moreover, the binding signal in test [4] is -0.373 z-score; in test [5], -0.399 z-score; in test [6], -0.379 z-score; in test [7] it was -0.38 z-score; in test [8], -0.401 z-score; in [9], -0.383 z-score. Moreover, the binding signal was -0.398 z-score in test [10]; -0.392 z-score in [11]; -0.374 z-score in the test on QARS (human); -0.392 z-score in the test with RAB1B (human); -0.4 z-score in the test with RAB27A (human); 5.92 z-score with RAB35. Further, the binding signal in the test on RAB39 (human) is -0.385 z-score; in the test on RAB3B (human), -0.38 z-score.

These data come from publication PMC5996148.
